Laboratory results: the RNAGym collection of RNA variant scans (doi:10.1126/science.aae0568)
Variants at the floor of the assay are shown more often than the library holds them.

B1: tRNA (parent)
chain: GUUCCGUUGGCGUAAUGGUAACGCGUCUCCCUCCUAAGGAGAAGACUGCGGGUUCGAGUCCCGUACGGAACG

Variants of: B1
Test: yeast fitness relative to wild type (ratio to wild type); higher = fitter; tRNA-Arg(CCU), competitive growth, 37 C, YPD
Method in brief: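 Variants of the tRNA-Arg(CCU) gene, chemically synthesised with a 3% per-site mutation rate at 69 sites, were placed at the native genomic locus in Saccharomyces cerevisiae. The pooled strains were competed in YPD at 37°C for 24 hours in six parallel replicates. Gene amplicons from the start population and from each end population were read by 100-nucleotide paired-end sequencing. Darwinian fitness relative to wild type came from changes in genotype frequencies; genotypes needed ≥ 100 starting reads, and estimates < 0.5 were set to 0.5.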

| Variant | yeast fitness |
| --- | --- |
| GUACAGUUGGCGUAAUGGUAACGCGUCUCCCUUCUAAGGAGAAGACUGCGCGUUCGAGUCCCGUACGGAACG | ≤ 0.5 |
| GUUCCGUUGGCGUAAUGGUGACGCGUCUCCCGCCUUAGGAGAAGACUGCGGGUUCGCGUCCCGUACGGAACG | ≤ 0.5 |
| GUUCCGUUGGUGUAAUGGUAACGGGUCUCCCUGCUAAGGAGAAGACUGCGGGUUCGAGUCCCGUACGGAACG | 0.541 |
| GUUCUGUUGGCGUUAUGGUAACGCGUCUCUCUCCUAAGCAGAAGACUGCGGGUUCGAGUCCCGUACGGAACG | ≤ 0.5 |
| GUUCGGUUGGGGUAAUGGUAACACGUCUCCCUCCUAAGGAGAAGACUGCGUGUUCGGGUCCCGUACGGAACG | ≤ 0.5 |
| GUUCCGUUGGCGUAAUGGUAACGCGUCCCCAUCCUAAGGAAAAGACUGCGGGUUCGAGUCCCGUACGGAACG | ≤ 0.5 |
| GUUCCGGUGGCGUAAUGGUAACGCGUCUCCCUCCUAAGGAGGAGACUGCGGGUUCGAGUCCCGUACGGAACG | 0.837 |
| GUUCCGUUGGCGUAAUGGUAACGCGUCUCCCUCCUAAGGAGAAGACUGUGGGAUCGAGUCCCGUAAGGAACG | ≤ 0.5 |
| GUUCCGUUGGAGUAAUAGUAACCCGUCUCCCGCAUAAGGAGAAGACUGCGGGUUCGAGUCCCGUACGGAACG | ≤ 0.5 |
| GAUCCGUUGGCGUAAUGGUAACGCGUCUCCCUCCCAAGGACAAGACUGCGGGUUCGAGUCCCGUACGGAACG | ≤ 0.5 |
| GUUCCGUAGGCGUAAUGGUAACGCGUCUCCCGCCUAGGGAGAAGACUGCGGGUUCGAGUCCCGUACGGAACG | ≤ 0.5 |
| GUUCCGGUGGCGUAAUGGUAACGCGUCUCCCUGCUAAGGAGAAGACUGCGGGUUCGAGUCCAGUACGCAACG | ≤ 0.5 |
| GUUCCAUUGGCGUAAUGGUAACGCGUCUCCCUCCUAAGGAGAAGACUGCGGGUCCGUAUCCCGUUCGGAACG | ≤ 0.5 |
| GUUCCAUUGGCGUAAUGGUAACGCGUUUCCCUCCUAAGGAGAAGAAUGCGGGUUGGAGUCCCGUACGGAACG | ≤ 0.5 |
| GUUCCGUUGACGUAAUGGUACCGAGUCUCCCUCCUAAGGAGAAGACUGCGGGUUCGAGUCCCGUUCGGCACG | ≤ 0.5 |
| GUUCCGUUGGCGUAACGGCAACGCGUCUCCCUCCUAAGGAGAACACUGCGGGUUCCAGUCCCGUACGGAACG | ≤ 0.5 |
| GUUCCCUUGGCGUAAUGGUAACGCGCCUCCAUCCUAACGAGAAGACUGCGGGUUCGAGUCCCGUACGGAACG | ≤ 0.5 |
| GUUCCGCUGACGUAAUGGUAACGCGUCUCCCUCCUAAGGAGAAGACUGCCGGUUCGAGUCCCGUACGGAACG | ≤ 0.5 |
| GUUCCGUUGGCGUAAUGGUAACCCGUCUCCCUCCUAAGGAGCAGACUGCCGGUUCGAGUCCCGUAUGGAACG | ≤ 0.5 |
| GUUCCGUUGGGGUAAUGGUAAGGCGUGUCCCUCCUAAGGAGAAGACUGCGGGUUCGAGUCCUGUACGGAACG | 0.578 |
| GUUCCGUUGGCGUAAUGGUAACGCGUCUCUCUCCUAAGAAGAAGACUGCGGGUUCGAGUCCCGUACGCAACG | ≤ 0.5 |
| GUUCCGUUGGCGUAAUGGUAACGCGUCUCCCUCCUAAGGAAGAGACUGCGGGUUCGAUUCCCCUACGGAACG | ≤ 0.5 |
| GUUCCGUUCGCGUAAUGGUAACGCGUCUCCCUCCUUAGGAGAAGAGUGCGGGUUCGAGUCCCGUACGGAACG | ≤ 0.5 |
| GUUCCGUUGCCGUAUUGGUAACGUGUCUCCCUCCUAAGGAGAAGACUGCGGGUUCGAGUCCCGUACGGAACG | ≤ 0.5 |
| GUUCCGUAGGCGUAAUGAUAACGCGUCUCACACCGAAGGAGAAGACUGCGGGUUCGAGACCCGUACCGAACG | ≤ 0.5 |

| Variant | yeast fitness |
| --- | --- |
| GUUCCGUUGGCGUAAUGGUAAGGCGUCUCCCUCCUAAGGAGAAGACUGCGGGUUCGAGUACUGCACGGAACG | ≤ 0.5 |
| GUUCCGUUGGCGUAAUGGUAACGCGUAUCCCUCCUAAGCAGAAGACUGCGGGUUCGAGUCGCGUACGGAACG | ≤ 0.5 |
| GUUCCGUUGGCGUAAUGGUAACACGUCUCCCUCCUAAGGCGAAGACUGCGGGUACGAGACCCGUACGGAACG | ≤ 0.5 |
| GUUCCGUUGGCGUAAGGGUAACGCGUCUCCCUCCUAAGGAGAAGACUGCGGGUUCGAGUACCGUACGGAACG | 0.606 |
| GUUACAUUGGCGUAAUGGUGACGCGUCUCCCUCCUAAGGAGAAGAUUGCGGGUUCGGGUCCCGUACGGAACG | ≤ 0.5 |
| GUUCCGUUCGCGUAAUGGUAACGCGCCUCCCUCCUAAGGAGAAGACUGCGGGUGCGAGUCCCGUACGGAACG | ≤ 0.5 |
| GUUGCGUUGGCGUAAUCGUUACGCGUCUCCCUCCUACGGAGAAGACUGCGGGUUCGAGUCCCGUACGGAACG | 0.717 |
| GUUCCGUUGGCGUAAUGGUAACGCGUCUCCCUUAUAAGGAGAAGACUGCGGGGACGAGUCCCGUAAGGAACG | ≤ 0.5 |
| GUUCAGUUGGCGAAAUGGUAACGCGUCUCCCUCCUAAGGAGAAGCCUGCGGGUUCGAGUCCCGUACGGAACG | 0.576 |
| GUUCCGUUGGCGUAAUGGUAACGCGUCUCCCUCGUAAGGAGAUGACUGCGGGUUCGAGUCCCGUACGGACCG | ≤ 0.5 |
| GUUCAGUUGGCAUAAUGAUAACGCGUCUCCCUCCUAAGGAGAAGACUGCGGGUUCGGGUCCCGUACGAAACG | ≤ 0.5 |
| GUUCCGUUGGCGUAAUGGUAACGCAUCUCCCUCCUAAGGAGAAGACUGCGGGUUCGAGUGCCGUAUGGAUCG | ≤ 0.5 |
| GUUCCGUUGGCGUAAUCGUAGCGCGUCUCACUCGUAAGGAGAAGGCUGCGGGUUCGAGUCCCGUACGGAACG | ≤ 0.5 |
| GAUCCGUUGGCGUAAUGGUAACGCGUCUCCCUCCUAAGGAGUAGACUGCGGGUUCGAGUCCCGUACCGAACG | ≤ 0.5 |
| GUUCCGUUGACGUAAUGGUAACGCGUUUCCCUCCUAAGGCGAAGACACCGGGUUCGAGUCUCGUACGGAACG | ≤ 0.5 |
| GUUCCGUUGGCGUAAUGGUACCGCGUUUCCCUACUACGGAGAAGACUGCGGGUUCGAGUCCCGUACGGAACG | 0.554 |
| GUUGCGUUGGGGUAAUGGUAUCGCGUCUCCCUCCUUAGGAGAAGACUGCGGGUUCGACUCCCGUACGGACCG | ≤ 0.5 |
| GUUCCGUUGGAGUAAUGGUAACGCGUCUCCCUCCUAAGGAGAAGACUGCGAGUUCGAGUCCCGUACGGCACG | ≤ 0.5 |
| GUUCGGUUGGCGUAAUGGUGACGCGUCUCCCUCCUCAGGAGGAGACUGCGGGUUCGAGUCCCGUACGGAACG | ≤ 0.5 |
| GUUCCGUUGGCGUAAUGGUAACGCGUCUCCCUCCUAAGGAGAAGACUGCGGGUUCGAGUCCCCAAGGGAACG | ≤ 0.5 |
| GUUCGGUUGGCGUAAUGGUAACGCAUCUCCCUCCUAAGGAGAAGAAUGCGGGUUCGAGUCCCGUACGGAACG | 0.651 |
| GUUCCGUUGGCGUAAUGGUAACGCGUCUCCCUCCUAAGGAGAAGACUGCGGGUUCGAGUCCCGCACGGACCG | 0.967 |
| GUUCCGUUGGCGUAAGGGUAACGCGUCUCCCUCCUAAGGAGAAGACUGCGGGUUCGAGUUGCGUACAGAACG | ≤ 0.5 |
| GUUACGUUGGCGUGAUCGUAACGCGUCUCCCUCCUAAGGAGAAGACUGCGGGUUCGAGUCCCGUACGGAACG | ≤ 0.5 |
| GUUCCGUUGGGGUAAUGGUAACGCGUCUCCCUCCUAAGGAGAAGACUGAGGGUUCGAGUCCCCUACGUAACG | ≤ 0.5 |

| Variant | yeast fitness |
| --- | --- |
| GAUCCGUUGGCGUAAUGGUAACGGGUCUCCCUCCUACGGAGAAGACUGCGGGUUCGAGUCCCGUAUGGAACG | ≤ 0.5 |
| GUUCCGUUCGCGUACUGGUAACGCGUCUCCCUCGUAAGGAGAAGACUGCGGGUUAGAGUCCCGUAAGGCACG | ≤ 0.5 |
| GUUCCGUUGGCGUAAUGGAAACGCGUCUCCCUCAUAAGGAGAAGACUGCGGGUACGAGUCCUGUACGGAACG | ≤ 0.5 |
| GUCCCGUUCGUGUAAUGGUAUCGCGUCUCCCUCCUAAGGAGAAGACUCCGGGUUAGAGUCCCGUAGCGAACG | ≤ 0.5 |
| GUGCCGUUGGCGUAAUGGUAACGCGUCUCCCUCCUAAGGAGAAGACCGCGCGUUCGAGUCCCGUACGGAACG | ≤ 0.5 |
| GUUCCGUUGGCGUAGUGGUAACGGGACUCCCUCCUAAGGAGAAGACUGCGGAUUCGAGUCCCGUACACAACG | 0.561 |
| GUUACGUUGGCGUAAUGGAAACGCGUUUCCCUCCUAAGGAGAAGACUGCGGGUUCGAGUCCCGUACGGAACG | 0.562 |
| GGUCCGUUGGCGUAAUGGUUACGCGUCUACCUCCUAAGAAGAAGCCUGCGGGUUCGAGUCCCGUACGGAUCG | ≤ 0.5 |
| GUUCCGUUGGCGUAAUGGUAACCCGUCUCCCUCCUAAGGAGAAGACUGCGGGUUCGAGUCCCGUAGGGAACG | ≤ 0.5 |
| GUUCCGUUGGCGUAAUGGUAACGCGUCUCCCUGCUAAGGAGAAGACUGCGGGUUCGAGUACCGUACGGACCG | ≤ 0.5 |
| GUUCCGUUGGCGUAUUGGUAACGCGUCUACCUCCUAAGGAGAAGACUGCGGGUUCGCGACCCGUACGGAACG | ≤ 0.5 |
| GUUCCGAUGGCGUAAUGGUGACACGGCUCCCUCCUAAGGAGAAGACUGCGGGUUCGACUCCCGUACGGAACG | ≤ 0.5 |
| GCUCCGUUGGCGUAAUGGUAACGCGUCUCCCUCCUAUGGAGAAGACUGCGGGUUCGAGUCCAGUACGGAACG | ≤ 0.5 |
| GUUCCGUUGGCGUAAUGGUAACGCGUCUCCCUCCUAACGAGUAGACGGCGGGUUCGAGUCCUGUACGGAACG | ≤ 0.5 |
| GUUCCGUUGGCGUAAUGGUAACACGUCUCCCUCCUCAAGAGAAGACUGCGGGUUCGAGUGCGGUACGGAACG | ≤ 0.5 |
| GUUCCGUUGGCGUAAUGGUAACGCGUCUCCCUCCUAAGGAGAAAACUGCGGGUUCGUGUGCCGUACGGAACG | ≤ 0.5 |
| GUUCCGUUGGCGUAAUGGUAAUGCCUCUCCCUCCUAAGGAGAAGACUGCGGGUUCGAGUCCCGUACGGAACG | 0.697 |
| GUUGCGUUGGCGUAAUGGUACAGCGUGUCCCUCUUAAGGAGAAGACUGCGGGUUCAAGUCCCGUACCGAACG | ≤ 0.5 |
| GUUCGGUUGGCGUAAUGGUAACGCGUCUCCCUUCUAAGAAGAAGACUGCGGGUUCGAGUCCCGUACGGAACG | ≤ 0.5 |
| GUUCCGUUGGCGUAAUGGUAACGCGUCUCCCUCCUAAGGAGACGACUGCGGGUUCGGGCCCCGUACGGAGCG | ≤ 0.5 |
| GAUCUGUUGGCGUAAUAGUAGCGCGUCUCGCUCCUAAGGAGAAGACUGCGGCUUCGAGUCUCGUACGGAACG | ≤ 0.5 |
| GUUCUGUUGGCGUAAUGGUACCGCGUCUCCCUCCUAAGGAGAACAUUGCGGGUUCGAGUCCCGUACGGAACG | 0.532 |
| GUUCCCUUGGCGUCAUGGUAACGCGUCUCCCUCCUAAGGAGAAGACUGUGGGUUCGAGUCCCGUACGGAACG | ≤ 0.5 |
| GUUCCGUUAGCGUAAAGGUAACGCCUCUCCCUCCUAAGGAGGAGAGUGCGGGUUCGAGUCCCGUACGGAACG | ≤ 0.5 |
| GUUCCGUUGGCGUAAUGGUAACGUGUCUCCCUCCUAAGCAGAAGACUGCGGGUACGAGUCCCGUACGGAACG | ≤ 0.5 |
